Source: paper PMC12040169 (PLOS Biology, 2025)
The other results are listed elsewhere or left out.

These molecules were tested on T1, CTL2-GFP (C. trachomatis L2/434/Bu, GFP-expressing). Details: bulk GFP, single well; 28.5 h, 10 µM; inhibitor.
T1 construct: L2/434/Bu, GFP-expressing
Set-up: species or system HeLa; Intracellular C. trachomatis growth in HeLa cells, bulk GFP fluorescence relative to DMSO
With `CC(Cn1cncn1)NS(=O)(=O)c1cccc(C(=O)N2CCCCC2)c1` (stereo not drawn) [CBK306594] the “% of control remaining” value was 98.8053%. For `CC(C)Nc1nc2ccccc2nc1SCCc1ccncc1` [CBK103670], the “% of control remaining” value was 96.4517%. In the case of `COc1nccnc1N1CCN(CC(=O)Nc2c(C)cccc2C)CC1` [CBK084220], the “% of control remaining” value was 99.4319%. With `COc1ccc(/C=N/NC(=O)c2cc[nH]n2)cc1CSc1nc2ccccc2s1` [CBK263734] the “% of control remaining” value was 116.172%. With `O=C(Nc1nnc(-c2ccco2)o1)C(c1ccccc1)c1ccccc1` [CBK287424] the “% of control remaining” value was 137.764%. With `Cn1c(SCc2cc(-c3ccc(Cl)cc3)no2)nnc1-c1ccco1` [CBK295193] the “% of control remaining” value was 155.521%. `Cc1ccc(C(=O)N2CCN(c3ccc(NC(=O)c4ccc(-c5cccc([N+](=O)[O-])c5)o4)cc3)CC2)cc1` [CBK266355] was tested, and the “% of control remaining” value was 108.219%. `CCCc1[nH]nc(O)c1Cc1ccc(F)cc1F` [CBK075015] was tested, and the “% of control remaining” value was 109.36%. In the case of `NC(=O)C1(N2CCCCC2)CCN(C(=O)CSc2nnc(-c3ccccc3)n2C2CCCCC2)CC1` [CBK266219], the “% of control remaining” value was 122.13%. In the case of `CC(C)(C)c1ccc(N(C2CCNCC2)S(=O)(=O)c2ccc(Cl)cc2Cl)cc1` [CBK165067T], the “% of control remaining” value was 47.4504%. `O=C(c1cn2cc(-c3cccs3)n(CC3CC3)c(=O)c2n1)N1CC(O)C1` [CBK306979] was tested, and the “% of control remaining” value was 130.575%. With `CC1NCCc2c1sc1ccccc21` (stereo not drawn) [CBK026032C] the “% of control remaining” value was 107.735%. With `CC(Sc1nc2ccccc2[nH]1)C(=O)Nc1ccc(S(N)(=O)=O)cc1` (stereo not drawn) [CBK266128] the “% of control remaining” value was 115.177%. In the case of `O=C(Cc1ccccc1[N+](=O)[O-])NCCCN1CCOCC1` [CBK265520], the “% of control remaining” value was 120.147%. With `Oc1ccccc1-c1n[nH]c(=S)n1-c1ccc(OC(F)(F)F)cc1` [CBK288384] the “% of control remaining” value was 178.914%. In the case of `O=C(NCCn1nc(-c2cccs2)ccc1=O)C1CCCCC1` [CBK283837], the “% of control remaining” value was 128.292%. `NC(=O)CSc1nc(NCc2ccccc2)nc(N2CCOCC2)n1` [CBK268923] was tested, and the “% of control remaining” value was 111.943%. In the case of `O=C(CN1C2CCC1CC(O)(c1ccccc1F)C2)NCC1CC1` (stereo not drawn) [CBK281942], the “% of control remaining” value was 123.149%. In the case of `O=C(N/N=C/c1ccc(O)cc1O)c1[nH]c2ccc([N+](=O)[O-])cc2c1-c1ccccc1` [CBK263328], the “% of control remaining” value was 11.9907%. With `COCCn1c(CO)nnc1[C@H]1C[C@@H](NC(=O)c2ccc(C)s2)C1` [CBK307063] the “% of control remaining” value was 167.147%. With `Cn1ccnc1C1CCN(C(=O)NCc2cccc(F)c2)CC1` [CBK304606] the “% of control remaining” value was 113.396%. `CCc1nnc(Sc2ccc(C=O)cc2[N+](=O)[O-])[nH]1` [CBK268876] was tested, and the “% of control remaining” value was 116.175%. For `CCOc1ccc(CN2CCN(C(=O)c3cccc(C#N)c3)CC2)cc1` [CBK304527], the “% of control remaining” value was 114.516%. With `Cc1ccc(Cn2c(=N)n(CC(=O)c3ccc(Br)cc3)c3ccccc32)cc1` [CBK262979B] the “% of control remaining” value was 100%. In the case of `COc1cc2c(cc1OC)CN(C(=O)C1CCN(C)CC1)CC2` [CBK122744], the “% of control remaining” value was 125.198%. With `Cc1[nH]c2ccccc2c1/C=N/c1cccc2c(/N=C/c3c(C)[nH]c4ccccc34)cccc12` [CBK261227] the “% of control remaining” value was 100.293%. For `COC(=O)c1sc2ncccc2c1NS(=O)(=O)c1cc(Br)ccc1OC` [CBK049971], the “% of control remaining” value was 132.374%. For `O=C(CSc1ncn(-c2ccccc2)n1)c1ccc(Br)cc1` [CBK027014], the “% of control remaining” value was 108.311%. `O=C(O)c1ccc(Cl)c2c1C1C=CCC1C(c1ccccn1)N2` (stereo not drawn) [CBK287087] was tested, and the “% of control remaining” value was 146.133%. With `Cc1ccc(Oc2c([N+](=O)[O-])ncn2C)c(Br)c1` [CBK002819] the “% of control remaining” value was 101.87%. In the case of `Cc1cc2cc(C(F)(F)F)nc-2n(CC(=O)NC2CC2)c1` [CBK282888], the “% of control remaining” value was 87.6687%. For `O=C(c1ccc2c(c1)CCCO2)N(Cc1ccccn1)CC1CCCO1` (stereo not drawn) [CBK307488], the “% of control remaining” value was 173.781%. `CCC(C)Oc1ccccc1OCCN1C(=O)NC(C)(C)C1=O` (stereo not drawn) [CBK267362] was tested, and the “% of control remaining” value was 164.948%. `CN1CCCCC1CC(=O)Nc1ccc2ncn(C)c2c1` (stereo not drawn) [CBK281747] was tested, and the “% of control remaining” value was 144.899%. `Nc1ncc(-c2cccc(OC(F)(F)F)c2)nc1-c1ccc(C(=O)N2CCOCC2)cc1` [CBK064091] was tested, and the “% of control remaining” value was 122.848%. With `CN1CCN(c2ccnc3cc(Cl)ccc23)CC1` [CBK066867C] the “% of control remaining” value was 107.675%. For `Cc1ccc(CN2CCCC(n3c(=O)oc4ccccc43)C2)o1` (stereo not drawn) [CBK284871], the “% of control remaining” value was 128.291%. With `CCN1CCN(C(=O)c2ccc(C)c(S(=O)(=O)Nc3cccc(C)c3)c2)CC1` [CBK268226] the “% of control remaining” value was 91.4984%. In the case of `Nc1ncc(-c2ccc(-c3ccccc3)cc2)nc1NC1CCCCC1` [CBK063572], the “% of control remaining” value was 136.818%. With `CN(C)[C@@H]1CN(Cc2ccc(O)cc2)C[C@H]1c1cn(C)c2ccccc12` [CBK284952] the “% of control remaining” value was 118.745%. `Cc1cc(C)c(S(=O)(=O)N(CC(=O)O)C2CCCCC2)c(C)c1` [CBK266663] was tested, and the “% of control remaining” value was 143.363%. In the case of `CCCc1cc(O)nc(SC(C)C(=O)N2CCOCC2)n1` (stereo not drawn) [CBK305030], the “% of control remaining” value was 132.549%. In the case of `N#C/C(=C\c1ccccc1O)C(=O)Nc1sc2c(c1C(N)=O)CCCC2` [CBK263644], the “% of control remaining” value was 78.5852%. In the case of `CCOc1ccc(N2C(=O)CC(N3CCN(CCc4ccncc4)CC3)C2=O)cc1` (stereo not drawn) [CBK269930], the “% of control remaining” value was 111.493%. For `COc1ccccc1Cc1cccc(C2CCCN2C(=O)c2ccc(F)cc2)n1` (stereo not drawn) [CBK286239], the “% of control remaining” value was 112.885%. In the case of `CCn1cc(CN2CCN(C(=O)C3C4CCCCC43)CC2)c(C)n1` (stereo not drawn) [CBK281545], the “% of control remaining” value was 116.797%. For `O=C(NCc1ccc(Cl)cc1)N1CCCC(CO)C1` (stereo not drawn) [CBK156053], the “% of control remaining” value was 114.216%. `CCS(=O)(=O)N1CCC(C(=O)NC2CC(C)(C)Oc3ccccc32)CC1` (stereo not drawn) [CBK304364] was tested, and the “% of control remaining” value was 136.692%. With `COCCCN(Cc1ccccn1)Cc1cc(F)ccc1F` [CBK282950] the “% of control remaining” value was 97.3601%. In the case of `CC(=O)c1ccc(NC(=O)C(C)SCc2ccc(C)cc2)cc1` (stereo not drawn) [CBK296616], the “% of control remaining” value was 133.458%. `C#CCN(C)CC[C@@H]1CC[C@H](O)[C@@H](C(=O)NC(C)C)O1` [CBK288718] was tested, and the “% of control remaining” value was 103.972%. In the case of `O=C(Cc1ccc(F)cc1)N1CCC(c2cc3cnccc3[nH]2)CC1` [CBK283454], the “% of control remaining” value was 134.052%. `COC(=O)C(C)(C)C1c2cc(Br)ccc2OC(=O)C1C(=O)c1ccccc1` (stereo not drawn) [CBK266690] was tested, and the “% of control remaining” value was 151.675%. In the case of `CCOC(=O)c1[nH]c2ccccc2c1NS(=O)(=O)c1ccc(NC(C)=O)cc1` [CBK047411], the “% of control remaining” value was 110.758%. `O=C(Nc1nc2c(F)cc(F)cc2s1)c1ccc(F)cc1` [CBK287617] was tested, and the “% of control remaining” value was 135.338%. With `CCOC(=O)c1c(CN2CCCC2)nc2c3ccccc3ccn12` [CBK267521C] the “% of control remaining” value was 110.146%. `CC1CCc2c(sc(NC(=S)NC(=O)c3ccc4c(c3)OCCO4)c2C(N)=O)C1` (stereo not drawn) [CBK266370] was tested, and the “% of control remaining” value was 202.502%. For `Cc1cc(OCC(=O)Nc2ccc(S(=O)(=O)N3CCOCC3)cc2)ccc1[N+](=O)[O-]` [CBK268114], the “% of control remaining” value was 120.826%. In the case of `COC(=O)C(O)(CC(=O)Nc1ccc(C)c(F)c1)C(F)(F)F` (stereo not drawn) [CBK267440], the “% of control remaining” value was 134.804%. For `O=C(O)CN1C(=O)/C(=C/C2=Cc3ccccc3OC2)SC1=S` [CBK264787], the “% of control remaining” value was 100%. In the case of `O=c1cc(N2CCOCC2)cnn1CCCCOc1ccccc1` [CBK307327], the “% of control remaining” value was 136.462%. `CN1CCN(CC(=O)N/N=C/C2CC=CCC2)CC1` (stereo not drawn) [CBK019340] was tested, and the “% of control remaining” value was 149.272%. `Cc1ccc(-n2c(=O)[nH]c3c(C(N)=O)nc(-c4ccccc4)nc32)cc1C` [CBK287718] was tested, and the “% of control remaining” value was 119.303%. With `CCOC(=O)c1cnn2c(O)cc(CN3CCCC3c3ccsc3)nc12` (stereo not drawn) [CBK305647] the “% of control remaining” value was 78.4919%. For `Nc1cccc(-c2nccnc2NCc2cccnc2)c1` [CBK089310], the “% of control remaining” value was 98.817%. With `CN(C)S(=O)(=O)c1ccc(NC(=O)c2ccc(-c3ccccc3)cc2)cc1` [CBK267322] the “% of control remaining” value was 135.234%. For `NC(=O)c1c(NC(=S)NC(=O)c2ccccc2Br)sc2c1CCC2` [CBK265543], the “% of control remaining” value was 115.55%. With `COCCc1noc(C(C)NC(=O)Cc2cccc(O)c2)n1` (stereo not drawn) [CBK307493] the “% of control remaining” value was 147.203%. In the case of `CC(C)COc1ccc(-c2nonc2NC(=O)c2ccccc2F)cc1` [CBK299831], the “% of control remaining” value was 114.604%. `Cc1nc(C2CCN(C(=O)c3cscn3)CC2)c2sccn12` [CBK285240] was tested, and the “% of control remaining” value was 109.206%. For `COc1cccc(Cn2c(=O)[nH]n(-c3ccccc3)c2=O)c1` [CBK122771], the “% of control remaining” value was 92.6473%. `NC(=O)CN1CCC[C@@H]2NC(=O)COc3ccccc3C(=O)N[C@@H]3CCOC[C@@H]3C/C=C/C[C@@H]21` [CBK292041] was tested, and the “% of control remaining” value was 128.084%. In the case of `O=C(NC(C(=O)O)c1ccccc1)NC12CC3CC(CC(C3)C1)C2` (stereo not drawn) [CBK268313], the “% of control remaining” value was 103.162%. `c1ccc(-c2csc(Nc3cccnc3)n2)nc1` [CBK267184] was tested, and the “% of control remaining” value was 82.4639%. In the case of `CC(C)(C)NS(=O)(=O)c1ccc(OCC(=O)NCc2ccncc2)cc1` [CBK266434], the “% of control remaining” value was 143.769%. In the case of `Clc1ccc(OCCOc2ccccc2)nn1` [CBK176034], the “% of control remaining” value was 124.922%. For `COCc1ccc(C(=O)N2CCC(Cc3ccccc3-c3cccs3)(C(N)=O)CC2)cc1` [CBK286276], the “% of control remaining” value was 116.947%. For `O=C1CCOC[C@]2(CN(Cc3ccccc3)C[C@H]2c2ccccc2)N1` [CBK283367], the “% of control remaining” value was 133.875%.
